These are yes or no findings as the source states them, for the method shown. A result given as binding can be weak or reduced; the word gives no strength.
B1: MPE33 (antibody, V domains shown)
VH: QVQLQESGPGLVKPSQTLSLTCTVSGDSISNGSYCWNWVRQPAGKGLEWIGRIYPIGNTNYNPSLKSRVTISLDTSKNQFSLKLASVTAADTAVYYCAREARIFEGYYYYYYGLDVWGQGTTVTVSS
VL: EIVLTQSPATLSLSPGERATLSCRASQTISSYLAWYQQKPGQAPRLLISDVSKRATGIPARFSGSGSGTDFTLTISSLEPEDFAVYYCHQRSNWDTFGQGTKLEIK
B2: MPE33_N34S (antibody, V domains shown)
VH: QVQLQESGPGLVKPSQTLSLTCTVSGDSISSGSYCWNWVRQPAGKGLEWIGRIYPIGNTNYNPSLKSRVTISLDTSKNQFSLKLASVTAADTAVYYCAREARIFEGYYYYYYGLDVWGQGTTVTVSS
VL: EIVLTQSPATLSLSPGERATLSCRASQTISSYLAWYQQKPGQAPRLLISDVSKRATGIPARFSGSGSGTDFTLTISSLEPEDFAVYYCHQRSNWDTFGQGTKLEIK
B3: MPE33_N34Q (antibody, V domains shown)
VH: QVQLQESGPGLVKPSQTLSLTCTVSGDSISQGSYCWNWVRQPAGKGLEWIGRIYPIGNTNYNPSLKSRVTISLDTSKNQFSLKLASVTAADTAVYYCAREARIFEGYYYYYYGLDVWGQGTTVTVSS
VL: EIVLTQSPATLSLSPGERATLSCRASQTISSYLAWYQQKPGQAPRLLISDVSKRATGIPARFSGSGSGTDFTLTISSLEPEDFAVYYCHQRSNWDTFGQGTKLEIK
B4: MPE33_C38S (antibody, V domains shown)
VH: QVQLQESGPGLVKPSQTLSLTCTVSGDSISNGSYSWNWVRQPAGKGLEWIGRIYPIGNTNYNPSLKSRVTISLDTSKNQFSLKLASVTAADTAVYYCAREARIFEGYYYYYYGLDVWGQGTTVTVSS
VL: EIVLTQSPATLSLSPGERATLSCRASQTISSYLAWYQQKPGQAPRLLISDVSKRATGIPARFSGSGSGTDFTLTISSLEPEDFAVYYCHQRSNWDTFGQGTKLEIK
B5: MPE33_N34S_C38Y (antibody, V domains shown)
VH: QVQLQESGPGLVKPSQTLSLTCTVSGDSISSGSYYWNWVRQPAGKGLEWIGRIYPIGNTNYNPSLKSRVTISLDTSKNQFSLKLASVTAADTAVYYCAREARIFEGYYYYYYGLDVWGQGTTVTVSS
VL: EIVLTQSPATLSLSPGERATLSCRASQTISSYLAWYQQKPGQAPRLLISDVSKRATGIPARFSGSGSGTDFTLTISSLEPEDFAVYYCHQRSNWDTFGQGTKLEIK
B6: MPE33_C38A (antibody, V domains shown)
VH: QVQLQESGPGLVKPSQTLSLTCTVSGDSISNGSYAWNWVRQPAGKGLEWIGRIYPIGNTNYNPSLKSRVTISLDTSKNQFSLKLASVTAADTAVYYCAREARIFEGYYYYYYGLDVWGQGTTVTVSS
VL: EIVLTQSPATLSLSPGERATLSCRASQTISSYLAWYQQKPGQAPRLLISDVSKRATGIPARFSGSGSGTDFTLTISSLEPEDFAVYYCHQRSNWDTFGQGTKLEIK
B7: MPE33_S36A (antibody, V domains shown)
VH: QVQLQESGPGLVKPSQTLSLTCTVSGDSISNGAYCWNWVRQPAGKGLEWIGRIYPIGNTNYNPSLKSRVTISLDTSKNQFSLKLASVTAADTAVYYCAREARIFEGYYYYYYGLDVWGQGTTVTVSS
VL: EIVLTQSPATLSLSPGERATLSCRASQTISSYLAWYQQKPGQAPRLLISDVSKRATGIPARFSGSGSGTDFTLTISSLEPEDFAVYYCHQRSNWDTFGQGTKLEIK
B8: MPE33_C38Y (antibody, V domains shown)
VH: QVQLQESGPGLVKPSQTLSLTCTVSGDSISNGSYYWNWVRQPAGKGLEWIGRIYPIGNTNYNPSLKSRVTISLDTSKNQFSLKLASVTAADTAVYYCAREARIFEGYYYYYYGLDVWGQGTTVTVSS
VL: EIVLTQSPATLSLSPGERATLSCRASQTISSYLAWYQQKPGQAPRLLISDVSKRATGIPARFSGSGSGTDFTLTISSLEPEDFAVYYCHQRSNWDTFGQGTKLEIK
B9: MPF5_VH117D (MPF5) (antibody, V domains shown)
VH: QVQLQQWGAGLLKPSETLSLTCVGNSVSFNDYYWSWIRQSPGKGLEWIGEIGHGGEHNYNPSLNGRVTMSVDTSNNHFSLLLSSVTAADTAMYYCARGIGWLPPPDWGQGTLVTVSS
VL: DIVMTQSPDSLAVSLGERATINCKSSQSVLFSSNNENYLAWFQQKPGQPPKLLIYWASTRESGVPDRFSGSGSGTDFTLTITSLQAEDVAVYYCQQFYSPPWTFGQGTKVEIK
B10: MPF5_VH117H (antibody, V domains shown)
VH: QVQLQQWGAGLLKPSETLSLTCVGNSVSFNDYYWSWIRQSPGKGLEWIGEIGHGGEHNYNPSLNGRVTMSVDTSNNHFSLLLSSVTAADTAMYYCARGIGWLPPPHWGQGTLVTVSS
VL: DIVMTQSPDSLAVSLGERATINCKSSQSVLFSSNNENYLAWFQQKPGQPPKLLIYWASTRESGVPDRFSGSGSGTDFTLTITSLQAEDVAVYYCQQFYSPPWTFGQGTKVEIK

Molecular target: MPV F-protein HMPV_Yokohama/JPN(P8527)2016 (human metapneumovirus (hMPV), strain Yokohama/JPN(P8527)2016 (B2))
Test: flow cytometry on fixed, permeabilized transfected Expi293 cells, antibody at 5 µg/ml

Binder	binding
B1	binds
B2	binds
B3	binds
B4	binds
B5	binds
B6	binds
B7	binds
B8	binds
B9	binds
B10	binds
